Literature values in US12593847B2, “Formulations” (SYNGENTA CROP PROTECTION AG, priority 2020, dated 2026).
Some results were stated once for a whole list of compounds, not compound by compound.

Details: pH of 9 at 25° C.; cited from earlier work

Q: Which “time for degradation in water of at least 50%” value does the source give for CN1COCN(Cc2cnc(Cl)s2)/C1=N\[N+](=O)[O-] [Thiamethoxam] here?
A: less than 30 days
